# Literature values as cited in patent US6458835B2, “Method of inhibiting or treating chemotherapy-induced hair loss” (Bristol-Myers Squibb Company, priority 1997, dated 2002).
# For at least one compound, name, drawing or mass did not settle the structure.
# What was measured:
# [1] = tested on: doxorubicin-induced alopecia; conditions: 2% topical solution; cited from earlier work
# [2] = tested on: rat animal model of alopecia; conditions: injected locally; cited from earlier work
# [3] = tested on: chemotherapy-induced alopecia in cancer patients; conditions: 2% topical solution during chemotherapy and 4 weeks thereafter; fluorouracil, doxorubicin and cyclophosphamide; cited from earlier work
compound,measurement,setting,value
Nc1cc(N2CCCCC2)nc(N)[n+]1[O-] [minoxidil],prevention of doxorubicin-induced alopecia,[1],not effective
same,local prevention of 1-B-D-arabinofuranosylcytosine-induced alopecia,[2],good local prevention
same,local prevention of cyclophosphamide-induced alopecia,[2],not
same,period of baldness,[3],did decrease period of baldness
same,prevention of alopecia,[3],did not prevent alopecia
